Molecules are shown by their SMILES.

Protein sequences, listed by entry. Tags and fused reporters are not part of them.
UniProt Q9JIP4, whole entry: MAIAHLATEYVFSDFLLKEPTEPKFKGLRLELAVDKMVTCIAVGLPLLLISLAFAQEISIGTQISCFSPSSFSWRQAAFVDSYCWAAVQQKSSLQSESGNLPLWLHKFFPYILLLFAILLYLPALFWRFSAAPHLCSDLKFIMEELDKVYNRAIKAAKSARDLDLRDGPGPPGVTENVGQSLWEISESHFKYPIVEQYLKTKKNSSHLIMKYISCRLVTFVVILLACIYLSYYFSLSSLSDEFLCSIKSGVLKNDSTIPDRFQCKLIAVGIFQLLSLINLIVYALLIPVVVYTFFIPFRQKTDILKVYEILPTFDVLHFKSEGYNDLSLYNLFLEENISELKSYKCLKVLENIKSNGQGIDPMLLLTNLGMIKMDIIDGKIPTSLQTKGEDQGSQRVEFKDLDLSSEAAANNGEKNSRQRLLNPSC

The target in this test is T1, Panx1 (Mus musculus, UniProt Q9JIP4).
T1 construct: BV2 microglia were maintained in DMEM media (Gibco) containing 10% FBS; endogenous in cells; host or cells: BV-2 microglia
The class given is cell-based. To be noted: morphine 10 μM once a day for 5 days; BzATP 150 μM.

`CN1CC[C@]23c4c5ccc(O)c4O[C@H]2[C@@H](O)C=C[C@H]3[C@H]1C5` [morphine]: the “BzATP-evoked YO-PRO-1 uptake, morphine vs saline-treated microglia” value was “significantly greater uptake”.

The record behind these values is US11298569B2 (priority 2016, dated 2022).
